Measured values from PMC4401672.
No constants are given. Whether binding was seen depends on the method and setting. In cells and extracts the contact can be indirect. Some binding calls cover weakened binding; strength is not graded here. For some assays here: Where a sequence is shown, tags or fusion partners need not be part of it.

Experiments:
[1] = target: T1, Tag-PDZK1 (TAP tag linked to full-length PDZK1), expressed in primary mouse VSM cells (UniProt Q9JIL4); experiment: pull-down; primary mouse VSM cells infected with adenovirus for Tag alone or Tag-PDZK1; lysed 60h later (50 mM HEPES-KOH pH 7.5, 100 mM KCl, 0.1% NP-40); IgG-Sepharose 4h at 4°C; immunoblot with anti-Bcr
T1 sequence: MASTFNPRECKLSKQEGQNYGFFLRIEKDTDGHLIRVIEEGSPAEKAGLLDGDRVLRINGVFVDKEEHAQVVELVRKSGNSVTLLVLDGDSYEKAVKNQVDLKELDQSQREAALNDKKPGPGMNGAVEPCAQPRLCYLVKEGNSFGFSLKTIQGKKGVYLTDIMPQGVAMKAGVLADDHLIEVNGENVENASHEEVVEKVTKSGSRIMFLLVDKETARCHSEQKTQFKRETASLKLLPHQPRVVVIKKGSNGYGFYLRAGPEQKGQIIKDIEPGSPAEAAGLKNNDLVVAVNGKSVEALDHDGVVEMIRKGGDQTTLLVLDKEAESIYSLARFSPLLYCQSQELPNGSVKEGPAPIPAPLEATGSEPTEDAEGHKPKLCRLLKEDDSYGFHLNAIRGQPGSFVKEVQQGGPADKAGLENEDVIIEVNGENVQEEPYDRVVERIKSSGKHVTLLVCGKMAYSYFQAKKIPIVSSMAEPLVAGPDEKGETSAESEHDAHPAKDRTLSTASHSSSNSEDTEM

[2] = target: T2, PDZK1, endogenous in primary mouse VSM cells (mouse (endogenous in primary VSM cells)) (UniProt Q9JIL4); experiment: co-IP; endogenous proteins in primary mouse VSM cell lysate (1% TX-100, 150 mM NaCl, 100 mM Tris-HCl pH 8); IP with anti-Bcr or anti-PDZK1 antibody and Protein A/G agarose, 4°C, 2h; immunoblot for Bcr and PDZK1; PDZK1+/+ and PDZK1-/- cells
T2 sequence: T1 sequence

- binding [1]: binds
- binding [2]: binds
B1: breakpoint cluster region kinase (Bcr), endogenous in primary mouse VSM cells (protein, UniProt Q6PAJ1 1-1270)
chain: MVDSVGFAEAWRAQFPDSEPPRMELRSVGDIEQELERCKASIRRLEQEVNQERFRMIYLQTLLAKEKKSYDRQRWGFRRAAQPPDGAAEPRASAPRPPPAPADGADPAPVEESEARPDGEGSPSKGRSASARRPAAAASADRDDRGPPTSVAALRSNFEKIRKGPAQPGSADAEKPFYVNVEFHHERGLVKVNDKEVSDRISSLGSQAMQMERKKSQQSAGQGLGEAPRPHYRGRSSESSCGLDGDYEDAELNPRFLKDNLINANGGNRPPWPPLEYQPYQSIYVGGMMVEGEGKSPLLRSQSTSEQEKRLTWPRRSYSPRSFEDSGGGYTPDCSSNENLTSSEEDFSSGQSSRVSPSPTTYRMFRDKSRSPSQNSQQSFDSSSPPTPQCQKRHRQCQVVVSEATIVGVRKTGQIWPSDGDSTFQGEADSSFGTPPGYGCAADQAEEQRRHQDGLPYIDDSPSSSPHLSSKGRGSLASGALDPTKVSELDLEKGLEMRKWVLSGILASEETYLSHLEALLLPMKPLKAAATTSQPVLTSQQIETIFFKVPELYEIHKEFYDGLFPRVQQWSHQQRVGDLFQKLASQLGVYRAFVDNYGVAMETAEKCCQANAQFAEISENLRARSNKDVKDSTTKNSLETLLYKPVDRVTRSTLVLHDLLKHTPSSHPDHSLLQDALRISQNFLSSINEEITPRRQSMTVKKGEHRQLLKDSFMVELVEGARKLRHIFLFTDLLLCTKLKKQSGGKTQQYDCKWYIPLTDLSFQMVDELEALPNIPLVPDEELDALKIKISQIKSDIQREKRANKGSKVMERLRKKLSEQESLLLLMSPSMAFRVHSRNGKSYTFLISSDYERAEWRESIREQQKKCFKSFSLTSVELQMLTNSCVKLQTVHHIPLTINKEDDESPGLYGFLHVIVHSATGFKQSSNLYCTLEVDSFGYFVNKAKTRVYRDTTEPNWNEEFEIELEGSQTLRILCYEKCYNKMKMTKEDGESADKLMGKGQVQLDPQTLQDRDWQRTVIDMNGIEVKLSVKFTSREFSLKRMPSRKQTGVFGVKIAVVTKRERSKVPYIVRQCVEEIERRGMEEVGIYRVSGVATDIQALKAAFDVNNKDVSVMMSEMDVNAIAGTLKLYFRELPEPLFTDEFYPNFAEGIALSDPVAKESCMLNLLLSLPEANLLTFLFLLDHLKRVAEKETVNKMSLHNLATVFGPTLLRPSEKESKLPANPSQPITMTDSWSLEVMSQVQVLLYFLQLEAIPAPDSKRQSILFSTEV
